Reference: the supplement of paper PMC10849652
The other results are listed elsewhere or left out.

The chains behind the UniProt entries cited, without tags or fusion partners. Where a name states a change or a piece, a line headed by the entry shows the natural chain unless it says otherwise.
UniProt Q14773: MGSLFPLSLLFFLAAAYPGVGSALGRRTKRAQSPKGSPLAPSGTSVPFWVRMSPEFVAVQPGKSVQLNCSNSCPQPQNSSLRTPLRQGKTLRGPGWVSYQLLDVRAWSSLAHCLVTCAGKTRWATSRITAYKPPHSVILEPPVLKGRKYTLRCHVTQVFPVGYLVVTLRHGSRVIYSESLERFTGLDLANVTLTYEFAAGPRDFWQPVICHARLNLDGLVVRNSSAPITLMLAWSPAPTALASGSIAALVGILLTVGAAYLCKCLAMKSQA
UniProt P48735: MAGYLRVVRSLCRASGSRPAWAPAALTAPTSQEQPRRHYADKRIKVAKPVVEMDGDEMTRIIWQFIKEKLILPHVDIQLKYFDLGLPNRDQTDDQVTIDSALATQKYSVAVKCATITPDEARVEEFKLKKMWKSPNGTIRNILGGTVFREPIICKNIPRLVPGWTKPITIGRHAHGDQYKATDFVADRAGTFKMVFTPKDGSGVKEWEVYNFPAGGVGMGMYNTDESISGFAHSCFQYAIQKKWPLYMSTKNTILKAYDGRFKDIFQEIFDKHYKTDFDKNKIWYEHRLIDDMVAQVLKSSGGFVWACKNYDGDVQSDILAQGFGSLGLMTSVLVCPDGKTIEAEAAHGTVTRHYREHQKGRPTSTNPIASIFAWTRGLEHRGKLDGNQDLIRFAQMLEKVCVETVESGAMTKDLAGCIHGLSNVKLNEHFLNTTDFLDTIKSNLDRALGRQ
UniProt O00458: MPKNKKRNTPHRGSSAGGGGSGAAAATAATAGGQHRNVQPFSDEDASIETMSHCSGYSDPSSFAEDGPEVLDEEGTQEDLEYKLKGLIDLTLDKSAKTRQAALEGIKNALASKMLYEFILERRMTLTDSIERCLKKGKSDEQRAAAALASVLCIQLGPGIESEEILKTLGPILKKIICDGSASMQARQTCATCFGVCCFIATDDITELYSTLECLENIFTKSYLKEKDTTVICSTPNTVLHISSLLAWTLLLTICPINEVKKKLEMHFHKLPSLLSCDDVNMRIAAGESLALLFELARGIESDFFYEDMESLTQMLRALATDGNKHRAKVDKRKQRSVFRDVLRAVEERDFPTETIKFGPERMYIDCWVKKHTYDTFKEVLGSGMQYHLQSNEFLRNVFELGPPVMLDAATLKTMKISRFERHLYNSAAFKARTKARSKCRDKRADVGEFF
UniProt O15357: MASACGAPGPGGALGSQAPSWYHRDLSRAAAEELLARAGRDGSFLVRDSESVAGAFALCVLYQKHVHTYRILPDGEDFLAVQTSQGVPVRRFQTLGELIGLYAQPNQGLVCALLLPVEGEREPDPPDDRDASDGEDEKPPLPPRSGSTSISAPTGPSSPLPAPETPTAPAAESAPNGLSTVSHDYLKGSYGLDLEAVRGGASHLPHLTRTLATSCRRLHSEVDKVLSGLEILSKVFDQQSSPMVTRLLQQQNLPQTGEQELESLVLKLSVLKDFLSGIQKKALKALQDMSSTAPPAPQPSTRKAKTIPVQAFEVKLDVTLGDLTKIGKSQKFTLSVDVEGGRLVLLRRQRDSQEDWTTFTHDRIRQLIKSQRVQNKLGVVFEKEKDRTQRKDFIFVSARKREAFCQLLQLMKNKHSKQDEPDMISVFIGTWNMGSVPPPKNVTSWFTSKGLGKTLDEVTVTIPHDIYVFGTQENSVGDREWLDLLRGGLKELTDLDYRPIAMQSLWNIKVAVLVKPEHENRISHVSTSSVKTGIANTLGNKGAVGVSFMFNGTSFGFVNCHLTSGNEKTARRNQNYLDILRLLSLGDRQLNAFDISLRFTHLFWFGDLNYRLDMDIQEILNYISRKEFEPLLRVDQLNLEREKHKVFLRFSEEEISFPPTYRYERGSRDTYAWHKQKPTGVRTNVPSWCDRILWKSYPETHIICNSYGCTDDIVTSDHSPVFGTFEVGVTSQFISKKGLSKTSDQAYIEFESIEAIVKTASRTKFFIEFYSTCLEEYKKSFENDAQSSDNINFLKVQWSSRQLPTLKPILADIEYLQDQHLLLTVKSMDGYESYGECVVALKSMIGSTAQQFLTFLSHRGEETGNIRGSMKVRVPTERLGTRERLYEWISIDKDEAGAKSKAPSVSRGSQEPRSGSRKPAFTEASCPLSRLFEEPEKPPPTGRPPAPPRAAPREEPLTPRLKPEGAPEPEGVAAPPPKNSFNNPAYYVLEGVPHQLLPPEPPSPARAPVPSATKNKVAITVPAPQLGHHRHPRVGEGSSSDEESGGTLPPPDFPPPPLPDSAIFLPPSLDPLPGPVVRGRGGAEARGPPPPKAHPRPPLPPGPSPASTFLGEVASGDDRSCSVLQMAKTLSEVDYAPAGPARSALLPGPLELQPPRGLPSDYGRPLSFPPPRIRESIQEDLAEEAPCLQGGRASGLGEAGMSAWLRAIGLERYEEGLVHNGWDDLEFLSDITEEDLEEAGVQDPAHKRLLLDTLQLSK
UniProt Q9P2X3: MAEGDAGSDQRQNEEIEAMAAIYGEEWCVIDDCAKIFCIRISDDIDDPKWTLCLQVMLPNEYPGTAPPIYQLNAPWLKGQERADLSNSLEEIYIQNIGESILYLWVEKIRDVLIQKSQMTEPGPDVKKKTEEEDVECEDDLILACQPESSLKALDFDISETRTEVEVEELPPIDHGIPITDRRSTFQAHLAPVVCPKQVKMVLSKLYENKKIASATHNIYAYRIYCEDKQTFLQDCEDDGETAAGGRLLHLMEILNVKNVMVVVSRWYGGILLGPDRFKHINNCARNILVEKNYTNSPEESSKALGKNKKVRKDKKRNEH
UniProt Q9Y6M1: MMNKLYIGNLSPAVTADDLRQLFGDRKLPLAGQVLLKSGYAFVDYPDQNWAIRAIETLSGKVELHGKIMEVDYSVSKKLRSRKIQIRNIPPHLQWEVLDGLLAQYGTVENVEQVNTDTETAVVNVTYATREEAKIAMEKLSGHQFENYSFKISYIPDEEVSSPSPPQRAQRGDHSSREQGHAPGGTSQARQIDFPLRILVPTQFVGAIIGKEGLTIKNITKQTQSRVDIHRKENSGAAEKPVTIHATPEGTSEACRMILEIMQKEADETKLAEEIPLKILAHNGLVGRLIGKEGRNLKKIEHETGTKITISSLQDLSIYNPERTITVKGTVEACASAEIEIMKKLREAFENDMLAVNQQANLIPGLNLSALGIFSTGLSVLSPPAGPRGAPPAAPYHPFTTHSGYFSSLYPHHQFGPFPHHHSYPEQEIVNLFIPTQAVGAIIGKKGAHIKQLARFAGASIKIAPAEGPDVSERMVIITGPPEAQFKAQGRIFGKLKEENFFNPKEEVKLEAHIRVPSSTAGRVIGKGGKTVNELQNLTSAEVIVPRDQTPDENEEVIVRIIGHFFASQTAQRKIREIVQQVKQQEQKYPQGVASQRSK
UniProt P41134: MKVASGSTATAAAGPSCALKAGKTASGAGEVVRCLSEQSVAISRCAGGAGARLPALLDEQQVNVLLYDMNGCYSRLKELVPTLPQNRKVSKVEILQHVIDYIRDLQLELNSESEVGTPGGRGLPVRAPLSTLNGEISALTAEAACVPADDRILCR
UniProt O43719: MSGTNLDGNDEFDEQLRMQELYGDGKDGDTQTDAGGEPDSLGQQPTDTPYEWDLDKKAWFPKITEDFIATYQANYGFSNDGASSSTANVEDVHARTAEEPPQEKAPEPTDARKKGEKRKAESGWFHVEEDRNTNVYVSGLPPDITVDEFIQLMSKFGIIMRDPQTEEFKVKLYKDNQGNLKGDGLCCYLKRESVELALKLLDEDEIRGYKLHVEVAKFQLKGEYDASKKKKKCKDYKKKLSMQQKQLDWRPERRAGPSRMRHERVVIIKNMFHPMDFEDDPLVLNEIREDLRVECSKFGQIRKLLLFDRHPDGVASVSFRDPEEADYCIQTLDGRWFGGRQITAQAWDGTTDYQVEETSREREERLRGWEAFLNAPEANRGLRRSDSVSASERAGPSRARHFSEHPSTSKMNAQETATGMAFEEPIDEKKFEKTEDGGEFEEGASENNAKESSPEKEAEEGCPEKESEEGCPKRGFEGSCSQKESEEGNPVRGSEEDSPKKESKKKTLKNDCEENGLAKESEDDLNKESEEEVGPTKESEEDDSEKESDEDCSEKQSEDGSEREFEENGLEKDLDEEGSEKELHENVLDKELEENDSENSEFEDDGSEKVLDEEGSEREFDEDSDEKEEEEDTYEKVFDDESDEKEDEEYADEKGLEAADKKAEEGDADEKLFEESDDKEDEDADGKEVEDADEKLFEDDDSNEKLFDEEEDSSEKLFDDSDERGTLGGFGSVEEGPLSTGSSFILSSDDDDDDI
UniProt P61604, whole entry, looked up: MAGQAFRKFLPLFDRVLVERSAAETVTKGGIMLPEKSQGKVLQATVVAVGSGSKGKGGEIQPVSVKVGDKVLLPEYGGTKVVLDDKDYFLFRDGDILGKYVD
UniProt Q96T52: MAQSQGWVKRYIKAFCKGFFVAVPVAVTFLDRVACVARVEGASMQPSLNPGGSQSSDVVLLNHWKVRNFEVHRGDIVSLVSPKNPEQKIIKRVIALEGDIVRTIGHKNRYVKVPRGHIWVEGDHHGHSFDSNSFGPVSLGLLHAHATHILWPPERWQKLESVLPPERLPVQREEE
UniProt P05362: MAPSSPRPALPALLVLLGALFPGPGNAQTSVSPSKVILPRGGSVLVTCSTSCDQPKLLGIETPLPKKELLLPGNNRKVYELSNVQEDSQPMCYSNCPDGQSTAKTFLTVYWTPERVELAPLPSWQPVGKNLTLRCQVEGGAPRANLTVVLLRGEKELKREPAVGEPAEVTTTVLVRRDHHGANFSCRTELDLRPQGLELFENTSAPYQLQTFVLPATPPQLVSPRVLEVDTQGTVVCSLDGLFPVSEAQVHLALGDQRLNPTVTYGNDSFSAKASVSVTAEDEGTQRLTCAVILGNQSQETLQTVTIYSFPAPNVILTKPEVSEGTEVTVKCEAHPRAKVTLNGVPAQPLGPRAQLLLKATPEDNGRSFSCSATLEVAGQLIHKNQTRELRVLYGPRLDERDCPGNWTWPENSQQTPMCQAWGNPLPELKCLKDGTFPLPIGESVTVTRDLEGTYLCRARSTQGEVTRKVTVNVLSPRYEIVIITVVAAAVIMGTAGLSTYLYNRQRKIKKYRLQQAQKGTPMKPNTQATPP
UniProt O75874, whole entry, looked up: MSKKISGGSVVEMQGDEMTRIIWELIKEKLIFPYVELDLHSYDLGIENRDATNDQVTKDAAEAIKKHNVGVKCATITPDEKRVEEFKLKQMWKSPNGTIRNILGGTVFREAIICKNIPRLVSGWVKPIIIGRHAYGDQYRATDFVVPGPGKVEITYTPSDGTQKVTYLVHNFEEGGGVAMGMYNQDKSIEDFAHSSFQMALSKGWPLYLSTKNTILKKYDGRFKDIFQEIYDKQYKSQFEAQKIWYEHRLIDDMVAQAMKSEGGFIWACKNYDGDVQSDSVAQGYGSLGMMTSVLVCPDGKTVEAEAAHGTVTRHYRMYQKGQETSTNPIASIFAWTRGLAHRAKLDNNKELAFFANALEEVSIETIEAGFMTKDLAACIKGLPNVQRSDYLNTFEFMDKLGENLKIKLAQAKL
UniProt Q8WYA0: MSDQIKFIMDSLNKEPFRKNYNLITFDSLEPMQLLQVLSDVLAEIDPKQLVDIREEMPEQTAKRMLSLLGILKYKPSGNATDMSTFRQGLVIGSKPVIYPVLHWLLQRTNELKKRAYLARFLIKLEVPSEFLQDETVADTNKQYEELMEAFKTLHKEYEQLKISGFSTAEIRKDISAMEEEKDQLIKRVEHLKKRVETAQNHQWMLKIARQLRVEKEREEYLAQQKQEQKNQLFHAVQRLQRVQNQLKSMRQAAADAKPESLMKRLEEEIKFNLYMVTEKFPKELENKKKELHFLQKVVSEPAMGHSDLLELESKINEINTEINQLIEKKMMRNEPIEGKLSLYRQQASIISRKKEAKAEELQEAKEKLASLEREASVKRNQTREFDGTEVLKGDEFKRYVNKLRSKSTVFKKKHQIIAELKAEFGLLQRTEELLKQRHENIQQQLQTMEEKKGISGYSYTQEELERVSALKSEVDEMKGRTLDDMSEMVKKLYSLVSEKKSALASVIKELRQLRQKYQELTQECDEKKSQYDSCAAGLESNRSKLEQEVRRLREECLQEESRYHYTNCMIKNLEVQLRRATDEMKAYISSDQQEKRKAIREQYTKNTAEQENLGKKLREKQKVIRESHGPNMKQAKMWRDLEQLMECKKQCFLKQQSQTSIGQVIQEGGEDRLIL
UniProt Q8WYH8, whole entry, looked up: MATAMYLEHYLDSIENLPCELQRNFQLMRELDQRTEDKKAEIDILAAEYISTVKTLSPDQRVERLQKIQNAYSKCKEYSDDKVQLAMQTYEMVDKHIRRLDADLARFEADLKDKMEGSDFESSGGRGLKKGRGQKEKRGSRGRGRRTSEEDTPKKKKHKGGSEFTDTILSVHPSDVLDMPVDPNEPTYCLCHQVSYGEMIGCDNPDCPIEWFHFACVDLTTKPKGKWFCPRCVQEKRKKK

Tests used:
Test in all cases: log2 fold change, soluble protein after heating vs DMSO (PISA); higher = thermal stabilisation; K562 lysate, 10 uM; active = over 0.2 and 3.5 SD of the protein, either way, in both replicates (recomputed)
[1] = compound: C1=CC=C(C=C1)[C@H](COC2=CC3=C(C=C2)NC(=O)N3)NC(=O)C4=CC=CN(C4=O)CC5=CC(=C(C=C5)F)F
Summary of the method: (§1)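 The values are log-two fold changes in thermal stability compared with solvent controls and come from duplicates. They were obtained by TMTpro 16plex LC-MS/MS, with channel sums equalised, on the supernatant after 21,000xg for 90 min. That supernatant came from crude K562 extract at 1 mg/mL protein treated with 10 μM compound for 30 min, heated for 3 min across 48°C-58°C, pooled and brought to 0.5% NP-40 at 4°C.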

[2] = compound: CC1=C(SC2=C1C(=N[C@H](C3=NN=C(N32)C)CC(=O)N)C4=CC=C(C=C4)Cl)C
Summary of the method: as §1

[3] = compound: CC1=C2C(=CC=C1)N=C(N(C2=O)C3=CC=CC=C3C)CN4C=NC5=C(N=CN=C54)N
Summary of the method: as §1

[4] = compound: Cc1sc2c(c1C)C(c1ccc(Cl)cc1)=N[C@@H](CC(=O)OC(C)(C)C)c1nnc(C)n1-2
Summary of the method: as §1

[5] = compound: c1ccc([C@@H]2C[C@H]2NC2CCNCC2)cc1
Summary of the method: as §1

Target	log2 fold change [1]	log2 fold change [2]	log2 fold change [3]	log2 fold change [4]	log2 fold change [5]
ILF3 (UniProt Q12906)	inactive: 0.063	inactive: -0.134	inactive: 0.077	inactive: -0.026	inactive: -0.267
ICAM4 isoform 3 (UniProt Q14773)	inactive: 0.054	inactive: 0.027	inactive: -0.005	inactive: -0.376	inactive: -0.008
IDH2 (UniProt P48735)	inactive: -0.023	inactive: 0.009	inactive: 0.012	inactive: 0.053	inactive: 0.073
ING3 (UniProt Q9NXR8)	inactive: 0.056	inactive: 0.043	inactive: 0.017	inactive: 0.013	inactive: 0.082
IFRD1 (UniProt O00458)	inactive: -0.06	inactive: -0.055	inactive: -0.096	inactive: -0.043	inactive: 0.072
INPPL1 (UniProt O15357)	inactive: 0.014	inactive: 0.029	inactive: -0.021	inactive: 0.012	inactive: 0.021
IBA57 (UniProt Q5T440)	inactive: -0.002	inactive: 0.028	inactive: -0.016	inactive: -0.046	inactive: 0.014
IMPACT (UniProt Q9P2X3)	inactive: 0.093	inactive: -0.07	inactive: -0.18	inactive: -0.067	inactive: -0.13
IGF2BP2 (UniProt Q9Y6M1)	inactive: -0.041	inactive: -0.004	inactive: 0.012	inactive: 0.022	inactive: 0.008
ID1 (UniProt P41134)	inactive: 0.087	inactive: 0.02	inactive: 0.038	inactive: 0.051	inactive: 0.017
HTATSF1 (UniProt O43719)	inactive: 0.04	inactive: -0.028	inactive: 0.001	inactive: 0	inactive: -0.023
ILVBL (UniProt A1L0T0)	inactive: 0.068	inactive: 0.068	inactive: 0.023	inactive: 0.029	inactive: -0.04
IGSF8 (UniProt Q969P0)	inactive: -0.093	inactive: 0.02	inactive: 0.021	inactive: 0.01	inactive: -0.058
HSPE1 (UniProt P61604)	inactive: -0.019	inactive: -0.052	inactive: -0.01	inactive: 0.007	inactive: -0.021
INPP4A (UniProt Q96PE3)	inactive: -0.079	inactive: 0.112	inactive: 0.027	inactive: 0.036	inactive: 0.017
INPP5B (UniProt P32019)	inactive: 0.005	inactive: -0.008	inactive: 0.038	inactive: -0.032	inactive: -0.015
IMMP2L (UniProt Q96T52)	inactive: -0.084	inactive: -0.001	inactive: 0.001	inactive: -0.047	inactive: -0.001
HUWE1 (UniProt Q7Z6Z7)	inactive: 0.009	inactive: 0.003	inactive: 0.015	inactive: -0.024	inactive: -0.004
ICAM1 (UniProt P05362)	inactive: -0.031	inactive: 0.004	inactive: -0.011	inactive: -0.037	inactive: -0.028
IGHA1 (UniProt P01876)	inactive: -0.315	inactive: 0.337	inactive: 0.349	inactive: -0.259	inactive: -0.215
IGHG1 (UniProt P01857)	inactive: 0.433	inactive: -0.179	inactive: 0.103	inactive: 0.055	inactive: -0.209
IL18R1 (UniProt Q13478)	active: -0.612	inactive: -0.103	inactive: 0.119	inactive: -0.094	inactive: 0.052
IGHMBP2 (UniProt P38935)	inactive: 0.021	inactive: 0.109	–	inactive: -0.028	–
IDH1 (UniProt O75874)	inactive: -0.028	inactive: 0.01	inactive: 0.043	inactive: 0.025	inactive: 0.016
IGBP1 (UniProt P78318)	inactive: 0.023	inactive: -0.017	inactive: -0.008	inactive: 0.045	inactive: -0.038
IFT81 (UniProt Q8WYA0)	inactive: 0.011	inactive: 0.016	–	–	inactive: 0.106
ING5 (UniProt Q8WYH8)	inactive: -0.056	inactive: 0.016	–	inactive: -0.212	–
IGKC (UniProt P01834)	inactive: -0.017	inactive: -0.247	–	inactive: -0.095	inactive: -0.296

No new results follow: entries from further up.
Target	log2 fold change [1]	log2 fold change [2]	log2 fold change [3]	log2 fold change [4]	log2 fold change [5]
INPP5B (UniProt P32019)	inactive: 0.005	inactive: -0.008	inactive: 0.038	inactive: -0.032	inactive: -0.015
IMMP2L (UniProt Q96T52)	inactive: -0.084	inactive: -0.001	inactive: 0.001	inactive: -0.047	inactive: -0.001
